US9198432B2, “1,2,4-triazolyl-substituted ketoenols” (BAYER INTELLECTUAL PROPERTY GMBH, priority 2011, dated 2015)
Some results were stated once for a whole list of compounds, not compound by compound. For at least one compound, name, drawing or mass did not settle the structure.

How the values were obtained:
Assay type in all cases: in vivo
Echinocloa crus-galli [1] = test: Herbicidal post-emergence action; conditions: 320 g/ha, about 3 weeks
Alopecurus myosuroides [2] = test: Herbicidal pre-emergence action; conditions: 320 g/ha of a.i., about 3 weeks
Alopecurus myosuroides [3] = test: Herbicidal post-emergence action; conditions: 320 g/ha, about 3 weeks
Echinocloa crus-galli [4] = test: Herbicidal pre-emergence action; conditions: 320 g/ha of a.i., about 3 weeks
Avena fatua [5] = test: Herbicidal post-emergence action; conditions: 320 g/ha, about 3 weeks
Lolium multiflorum [6] = test: Herbicidal post-emergence action; conditions: 320 g/ha, about 3 weeks
Avena fatua [7] = test: Herbicidal pre-emergence action; conditions: 320 g/ha of a.i., about 3 weeks
Setaria viridis [8] = test: Herbicidal pre-emergence action; conditions: 320 g/ha of a.i., about 3 weeks
Setaria viridis [9] = test: Herbicidal post-emergence action; conditions: 320 g/ha, about 3 weeks
Lolium multiflorum [10] = test: Herbicidal pre-emergence action; conditions: 320 g/ha of a.i., about 3 weeks

Measured: herbicidal activity in percent

Cn1nc(-c2ccc(F)cc2)nc1C1=C(O)C(C)(C)NC1=O [Example I-1-a1-1]
≥ 80%: all assays above

CCn1nc(-c2ccc(F)cc2)nc1C1=C(O)C(C)(C)NC1=O [Example I-1-a1-2]
≥ 80%: all assays above

CCn1nc(-c2ccc(Cl)cc2)nc1C1=C(O)C(C)(C)NC1=O [Example I-1-a1-4]
≥ 80%: all assays above

CC(C)n1nc(-c2ccc(Cl)cc2)nc1C1=C(O)C(C)(C)NC1=O [Example I-1-a1-9]
≥ 80%: Alopecurus myosuroides [2] | Echinocloa crus-galli [4] | Avena fatua [7] | Setaria viridis [8] | Lolium multiflorum [10]

CCCn1nc(-c2ccccc2)nc1C1=C(O)C(C)(C)NC1=O [Example I-1-a1-10]
≥ 80%: Alopecurus myosuroides [2] | Echinocloa crus-galli [4] | Avena fatua [7] | Setaria viridis [8] | Lolium multiflorum [10]

COC1CCC2(CC1)NC(=O)C(c1nc(-c3ccc(F)cc3)nn1C)=C2O (stereo not drawn) [Example I-1-a2-1]
≥ 80%: all assays above

CCn1nc(-c2ccc(F)cc2)nc1C1=C(O)C2(CCC(OC)CC2)NC1=O (stereo not drawn) [Example I-1-a2-2]
≥ 80%: all assays above

COC1CCC2(CC1)NC(=O)C(c1nc(-c3ccc(Cl)cc3)nn1C)=C2O (stereo not drawn) [Example I-1-a2-3]
≥ 80%: all assays above

CCn1nc(-c2ccc(Cl)cc2)nc1C1=C(O)C2(CCC(OC)CC2)NC1=O (stereo not drawn) [Example I-1-a2-4]
≥ 80%: all assays above

CCn1nc(-c2ccccc2)nc1C1=C(O)C2(CCC(OC)CC2)NC1=O (stereo not drawn) [Example I-1-a2-6]
≥ 80%: all assays above

COC1CCC2(CC1)NC(=O)C(c1nc(-c3ccccc3)nn1C(C)C)=C2O (stereo not drawn) [Example I-1-a2-7]
≥ 80%: Alopecurus myosuroides [2] | Echinocloa crus-galli [4] | Avena fatua [7] | Setaria viridis [8] | Lolium multiflorum [10]

COC1CCC2(CC1)NC(=O)C(c1nc(-c3ccc(Cl)cc3)nn1C(C)C)=C2O (stereo not drawn) [Example I-1-a2-9]
≥ 80%: Alopecurus myosuroides [2] | Echinocloa crus-galli [4] | Avena fatua [7] | Setaria viridis [8] | Lolium multiflorum [10]

CCCn1nc(-c2ccccc2)nc1C1=C(O)C2(CCC(OC)CC2)NC1=O (stereo not drawn) [Example I-1-a2-10]
≥ 80%: all assays above

Cn1nc(-c2ccc(F)cc2)nc1C1=C(O)C2(CCOCC2)NC1=O [Example I-1-a3-1]
≥ 80%: Echinocloa crus-galli [1] | Alopecurus myosuroides [3] | Avena fatua [5] | Lolium multiflorum [6] | Setaria viridis [9]

CCn1nc(-c2ccc(F)cc2)nc1C1=C(O)C2(CCOCC2)NC1=O [Example I-1-a3-2]
≥ 80%: all assays above

CCn1nc(-c2ccccc2)nc1C1=C(O)C2(CCOCC2)NC1=O [Example I-1-a3-6]
≥ 80%: Alopecurus myosuroides [2] | Echinocloa crus-galli [4] | Avena fatua [7] | Setaria viridis [8] | Lolium multiflorum [10]

Cn1nc(-c2ccc(F)cc2)nc1C1=C(O)C2CCCN2C1=O (stereo not drawn) [Example I-1-a4-1]
≥ 80%: Echinocloa crus-galli [1] | Alopecurus myosuroides [3] | Avena fatua [5] | Lolium multiflorum [6] | Setaria viridis [9]

CCCn1nc(-c2ccc(F)cc2)nc1C1=C(O)C2CCCN2C1=O (stereo not drawn) [Example I-1-a4-11]
≥ 80%: Alopecurus myosuroides [2] | Echinocloa crus-galli [4] | Avena fatua [7] | Setaria viridis [8] | Lolium multiflorum [10]

CCn1nc(-c2ccc(Cl)cc2)nc1C1=C(O)CN(C2CC2)C1=O [Example I-1-a5-4]
≥ 80%: Echinocloa crus-galli [1] | Alopecurus myosuroides [3] | Avena fatua [5] | Lolium multiflorum [6] | Setaria viridis [9]

CC(C)n1nc(-c2ccc(F)cc2)nc1C1=C(O)CN(C2CC2)C1=O [Example I-1-a5-8]
≥ 80%: Alopecurus myosuroides [2] | Echinocloa crus-galli [4] | Avena fatua [7] | Setaria viridis [8] | Lolium multiflorum [10]

CCCOC1CCC2(CC1)NC(=O)C(c1nc(-c3ccc(Cl)cc3)nn1C)=C2O (stereo not drawn) [Example I-1-a6-3]
≥ 80%: Alopecurus myosuroides [2] | Echinocloa crus-galli [4] | Avena fatua [7] | Setaria viridis [8] | Lolium multiflorum [10]

C=CCOC1CCC2(CC1)NC(=O)C(c1nc(-c3ccc(Cl)cc3)nn1C)=C2O (stereo not drawn) [Example I-1-a11-3]
≥ 80%: Alopecurus myosuroides [2] | Echinocloa crus-galli [4] | Avena fatua [7] | Setaria viridis [8] | Lolium multiflorum [10]

CCC1(OC)CCC2(CC1)NC(=O)C(c1nc(-c3ccc(Cl)cc3)nn1C)=C2O (stereo not drawn) [Example I-1-a12-3]
≥ 80%: Alopecurus myosuroides [2] | Echinocloa crus-galli [4] | Avena fatua [7] | Setaria viridis [8] | Lolium multiflorum [10]

CC1COC2(CCC3(CC2)NC(=O)C(c2nc(-c4ccc(Cl)cc4)nn2C)=C3O)OC1 (stereo not drawn) [Example I-1-a13-3]
≥ 80%: Alopecurus myosuroides [2] | Echinocloa crus-galli [4] | Avena fatua [7] | Setaria viridis [8] | Lolium multiflorum [10]

CCn1nc(-c2ccc(F)cc2)nc1C1=C(O)C2(CCOCC2)OC1=O [Example I-2a3-2]
≥ 80%: Echinocloa crus-galli [1] | Alopecurus myosuroides [3] | Avena fatua [5] | Lolium multiflorum [6] | Setaria viridis [9]

COC1CCC2(CC1)NC(=O)C(c1nc(-c3ccc(Cl)cc3)nn1C(C)C)=C2O (stereo not drawn) [I-1-a2-9]
≥ 80%: Echinocloa crus-galli [1] | Alopecurus myosuroides [3] | Avena fatua [5] | Lolium multiflorum [6] | Setaria viridis [9]
